Source: US5628328A, “Method for measuring muscle mass” (priority 1995, dated 1997)
No dose or concentration is given here for some results.

Test: Correlation of model compartments with muscle, pigs
Type: in vivo

Cn1cnc(C[C@H](N)C(=O)O)c1 [3-methylhistidine]
Correlation coefficient r, plasma 3MH vs. kg of muscle: -0.52
